Source: the supplement of paper PMC6411743
± gives the standard deviation of the averaged measurements. Only a part is listed here, and it is no random draw.

Protein sequences, listed by entry. Tags and fused reporters are not part of them. Lines headed by an entry give the natural chain unless they say otherwise; changes in a name come on top.
UniProt Q6ZT12: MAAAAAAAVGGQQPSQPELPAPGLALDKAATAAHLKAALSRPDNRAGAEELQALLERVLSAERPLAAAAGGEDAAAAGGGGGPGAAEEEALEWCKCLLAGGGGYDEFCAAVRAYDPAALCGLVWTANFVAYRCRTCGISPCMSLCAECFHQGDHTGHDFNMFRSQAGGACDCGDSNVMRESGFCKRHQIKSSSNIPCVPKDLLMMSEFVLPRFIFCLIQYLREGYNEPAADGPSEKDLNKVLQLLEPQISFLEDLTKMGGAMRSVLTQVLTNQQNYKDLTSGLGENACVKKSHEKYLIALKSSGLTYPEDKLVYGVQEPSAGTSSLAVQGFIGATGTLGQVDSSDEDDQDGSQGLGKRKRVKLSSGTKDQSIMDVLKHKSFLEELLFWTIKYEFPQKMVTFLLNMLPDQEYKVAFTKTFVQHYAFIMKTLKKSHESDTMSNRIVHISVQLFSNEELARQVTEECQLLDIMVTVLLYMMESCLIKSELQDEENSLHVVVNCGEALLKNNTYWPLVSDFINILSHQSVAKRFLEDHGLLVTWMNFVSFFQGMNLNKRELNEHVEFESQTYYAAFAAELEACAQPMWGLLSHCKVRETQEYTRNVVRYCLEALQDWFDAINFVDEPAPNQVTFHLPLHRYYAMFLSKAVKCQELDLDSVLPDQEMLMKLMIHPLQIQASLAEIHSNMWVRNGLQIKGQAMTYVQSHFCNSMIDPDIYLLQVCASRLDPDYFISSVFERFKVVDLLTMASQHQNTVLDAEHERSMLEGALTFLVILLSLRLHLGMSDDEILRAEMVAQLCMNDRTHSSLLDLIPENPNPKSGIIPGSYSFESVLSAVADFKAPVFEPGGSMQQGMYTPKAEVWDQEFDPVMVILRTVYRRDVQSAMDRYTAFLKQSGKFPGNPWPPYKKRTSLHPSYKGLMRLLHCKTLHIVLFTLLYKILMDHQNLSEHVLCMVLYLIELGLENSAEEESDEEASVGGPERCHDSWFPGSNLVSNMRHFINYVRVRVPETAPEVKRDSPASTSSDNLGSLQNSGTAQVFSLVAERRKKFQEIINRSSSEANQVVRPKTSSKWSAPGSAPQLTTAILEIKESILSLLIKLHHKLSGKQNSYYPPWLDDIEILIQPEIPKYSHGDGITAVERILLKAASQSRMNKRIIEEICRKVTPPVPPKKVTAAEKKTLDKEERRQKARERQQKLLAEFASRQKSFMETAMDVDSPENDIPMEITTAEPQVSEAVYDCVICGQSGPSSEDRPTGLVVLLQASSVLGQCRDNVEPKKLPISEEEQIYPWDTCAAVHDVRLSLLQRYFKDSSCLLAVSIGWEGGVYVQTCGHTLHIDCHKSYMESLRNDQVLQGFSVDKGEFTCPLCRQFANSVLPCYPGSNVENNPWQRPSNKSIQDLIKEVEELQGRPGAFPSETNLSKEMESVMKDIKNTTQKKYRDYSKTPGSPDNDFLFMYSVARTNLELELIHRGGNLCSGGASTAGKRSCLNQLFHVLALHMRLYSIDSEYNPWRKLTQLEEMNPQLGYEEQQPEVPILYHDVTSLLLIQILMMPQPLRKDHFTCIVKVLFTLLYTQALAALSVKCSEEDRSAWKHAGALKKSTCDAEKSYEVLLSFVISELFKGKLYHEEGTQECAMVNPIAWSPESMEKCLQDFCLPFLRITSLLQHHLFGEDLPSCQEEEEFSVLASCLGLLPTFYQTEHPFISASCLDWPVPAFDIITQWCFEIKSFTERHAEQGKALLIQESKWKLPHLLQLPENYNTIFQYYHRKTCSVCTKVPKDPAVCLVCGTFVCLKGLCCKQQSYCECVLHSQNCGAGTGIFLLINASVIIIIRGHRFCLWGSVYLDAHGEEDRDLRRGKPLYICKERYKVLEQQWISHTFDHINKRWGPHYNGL
UniProt Q86WQ0: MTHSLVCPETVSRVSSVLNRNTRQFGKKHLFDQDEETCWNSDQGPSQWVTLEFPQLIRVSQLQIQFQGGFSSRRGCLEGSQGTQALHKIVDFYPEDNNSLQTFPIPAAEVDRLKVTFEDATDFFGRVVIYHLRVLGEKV
UniProt Q7L9B9: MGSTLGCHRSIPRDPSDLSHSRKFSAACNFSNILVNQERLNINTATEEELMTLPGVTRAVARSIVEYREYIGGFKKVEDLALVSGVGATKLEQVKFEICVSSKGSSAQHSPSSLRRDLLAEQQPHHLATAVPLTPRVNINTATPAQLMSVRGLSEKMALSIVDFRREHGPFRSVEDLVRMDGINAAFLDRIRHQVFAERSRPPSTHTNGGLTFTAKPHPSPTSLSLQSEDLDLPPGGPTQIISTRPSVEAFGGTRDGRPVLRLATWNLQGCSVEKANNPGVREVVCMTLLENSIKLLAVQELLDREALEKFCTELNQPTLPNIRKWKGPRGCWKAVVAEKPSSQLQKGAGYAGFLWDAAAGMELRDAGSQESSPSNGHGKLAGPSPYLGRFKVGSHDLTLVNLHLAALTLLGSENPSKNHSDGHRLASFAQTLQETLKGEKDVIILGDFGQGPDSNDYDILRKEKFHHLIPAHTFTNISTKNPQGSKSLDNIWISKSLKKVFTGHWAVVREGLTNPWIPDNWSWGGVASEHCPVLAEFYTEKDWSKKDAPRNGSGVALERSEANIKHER
UniProt Q6ZW49, whole entry: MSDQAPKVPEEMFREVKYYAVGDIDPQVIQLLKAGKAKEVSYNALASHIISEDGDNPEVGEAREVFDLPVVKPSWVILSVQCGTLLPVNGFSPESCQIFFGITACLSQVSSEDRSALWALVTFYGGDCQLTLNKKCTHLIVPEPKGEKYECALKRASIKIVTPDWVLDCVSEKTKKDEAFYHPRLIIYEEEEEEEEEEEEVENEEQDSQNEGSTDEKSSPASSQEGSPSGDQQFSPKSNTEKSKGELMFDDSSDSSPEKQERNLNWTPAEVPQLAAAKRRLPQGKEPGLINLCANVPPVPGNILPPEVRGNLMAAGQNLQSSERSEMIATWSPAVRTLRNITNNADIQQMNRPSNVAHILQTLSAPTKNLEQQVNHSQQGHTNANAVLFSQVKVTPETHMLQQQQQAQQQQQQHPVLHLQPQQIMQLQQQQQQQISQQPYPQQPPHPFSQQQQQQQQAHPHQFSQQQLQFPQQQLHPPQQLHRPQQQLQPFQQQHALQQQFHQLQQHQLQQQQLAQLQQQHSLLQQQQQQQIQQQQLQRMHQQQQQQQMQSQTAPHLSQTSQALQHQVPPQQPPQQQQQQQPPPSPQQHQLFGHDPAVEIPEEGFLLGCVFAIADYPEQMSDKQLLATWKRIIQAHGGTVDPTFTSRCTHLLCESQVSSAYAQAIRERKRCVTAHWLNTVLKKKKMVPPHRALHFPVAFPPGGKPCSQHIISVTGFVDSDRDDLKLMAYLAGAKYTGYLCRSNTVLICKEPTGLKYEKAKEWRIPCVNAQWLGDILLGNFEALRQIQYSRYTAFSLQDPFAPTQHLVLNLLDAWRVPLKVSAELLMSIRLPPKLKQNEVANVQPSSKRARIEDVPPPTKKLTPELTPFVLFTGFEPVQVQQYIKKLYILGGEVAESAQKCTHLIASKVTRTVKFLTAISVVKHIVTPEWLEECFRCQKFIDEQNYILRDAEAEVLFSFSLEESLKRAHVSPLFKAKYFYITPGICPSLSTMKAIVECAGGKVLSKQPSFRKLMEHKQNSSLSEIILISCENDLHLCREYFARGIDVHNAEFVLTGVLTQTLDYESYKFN
UniProt Q6UWE0: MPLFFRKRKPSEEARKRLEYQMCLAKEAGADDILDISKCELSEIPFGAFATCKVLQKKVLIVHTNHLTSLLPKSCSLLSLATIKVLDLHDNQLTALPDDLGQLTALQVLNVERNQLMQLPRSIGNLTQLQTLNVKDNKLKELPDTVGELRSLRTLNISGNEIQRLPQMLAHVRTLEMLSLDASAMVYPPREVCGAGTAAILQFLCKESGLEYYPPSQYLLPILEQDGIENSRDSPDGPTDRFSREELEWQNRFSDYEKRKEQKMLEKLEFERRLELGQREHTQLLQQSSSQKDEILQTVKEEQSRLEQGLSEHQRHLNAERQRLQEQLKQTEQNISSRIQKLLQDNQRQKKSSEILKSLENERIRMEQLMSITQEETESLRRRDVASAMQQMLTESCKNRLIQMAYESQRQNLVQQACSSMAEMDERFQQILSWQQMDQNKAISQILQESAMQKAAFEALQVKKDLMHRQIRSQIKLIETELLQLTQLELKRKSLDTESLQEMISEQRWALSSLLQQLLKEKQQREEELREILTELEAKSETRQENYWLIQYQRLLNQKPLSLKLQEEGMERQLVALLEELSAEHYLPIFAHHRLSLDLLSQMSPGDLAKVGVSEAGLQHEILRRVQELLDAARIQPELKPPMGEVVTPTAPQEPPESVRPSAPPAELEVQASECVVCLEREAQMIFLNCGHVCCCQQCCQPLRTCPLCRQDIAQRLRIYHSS
UniProt Q7Z7C8, whole entry: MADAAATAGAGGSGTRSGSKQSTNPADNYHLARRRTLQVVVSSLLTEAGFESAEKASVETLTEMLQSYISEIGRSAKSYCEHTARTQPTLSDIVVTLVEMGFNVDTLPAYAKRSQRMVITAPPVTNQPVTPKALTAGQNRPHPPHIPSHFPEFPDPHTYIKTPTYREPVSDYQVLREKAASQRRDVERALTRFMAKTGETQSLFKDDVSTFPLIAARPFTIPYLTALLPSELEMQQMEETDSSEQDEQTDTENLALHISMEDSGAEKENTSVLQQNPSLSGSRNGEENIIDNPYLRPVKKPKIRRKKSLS
UniProt Q7L2H7, whole entry: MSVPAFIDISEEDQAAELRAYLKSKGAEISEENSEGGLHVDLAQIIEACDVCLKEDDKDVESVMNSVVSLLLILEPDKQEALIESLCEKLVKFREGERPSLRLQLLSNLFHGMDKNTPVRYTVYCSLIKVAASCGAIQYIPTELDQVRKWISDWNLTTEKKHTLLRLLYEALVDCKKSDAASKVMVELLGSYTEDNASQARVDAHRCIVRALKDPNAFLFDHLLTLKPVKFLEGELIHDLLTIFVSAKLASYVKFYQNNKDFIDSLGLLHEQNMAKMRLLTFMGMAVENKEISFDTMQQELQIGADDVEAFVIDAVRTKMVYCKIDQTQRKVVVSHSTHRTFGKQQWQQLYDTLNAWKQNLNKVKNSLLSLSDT
UniProt Q8IUH4: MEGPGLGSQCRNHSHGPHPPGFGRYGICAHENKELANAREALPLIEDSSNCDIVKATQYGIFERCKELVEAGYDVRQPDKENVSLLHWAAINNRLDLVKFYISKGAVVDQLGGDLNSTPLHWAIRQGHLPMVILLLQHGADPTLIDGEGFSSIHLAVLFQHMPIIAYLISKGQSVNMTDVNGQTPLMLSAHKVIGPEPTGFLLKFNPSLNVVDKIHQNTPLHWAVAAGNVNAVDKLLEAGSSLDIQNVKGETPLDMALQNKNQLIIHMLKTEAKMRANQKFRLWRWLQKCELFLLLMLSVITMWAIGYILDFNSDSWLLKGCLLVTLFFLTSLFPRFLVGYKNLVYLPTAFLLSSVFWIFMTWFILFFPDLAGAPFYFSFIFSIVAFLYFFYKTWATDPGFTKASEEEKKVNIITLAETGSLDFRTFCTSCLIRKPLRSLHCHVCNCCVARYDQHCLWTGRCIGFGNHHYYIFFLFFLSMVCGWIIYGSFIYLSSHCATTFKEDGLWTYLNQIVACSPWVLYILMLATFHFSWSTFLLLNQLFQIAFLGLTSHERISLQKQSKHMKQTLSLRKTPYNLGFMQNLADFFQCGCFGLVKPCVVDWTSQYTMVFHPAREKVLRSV
UniProt Q6ZWJ1: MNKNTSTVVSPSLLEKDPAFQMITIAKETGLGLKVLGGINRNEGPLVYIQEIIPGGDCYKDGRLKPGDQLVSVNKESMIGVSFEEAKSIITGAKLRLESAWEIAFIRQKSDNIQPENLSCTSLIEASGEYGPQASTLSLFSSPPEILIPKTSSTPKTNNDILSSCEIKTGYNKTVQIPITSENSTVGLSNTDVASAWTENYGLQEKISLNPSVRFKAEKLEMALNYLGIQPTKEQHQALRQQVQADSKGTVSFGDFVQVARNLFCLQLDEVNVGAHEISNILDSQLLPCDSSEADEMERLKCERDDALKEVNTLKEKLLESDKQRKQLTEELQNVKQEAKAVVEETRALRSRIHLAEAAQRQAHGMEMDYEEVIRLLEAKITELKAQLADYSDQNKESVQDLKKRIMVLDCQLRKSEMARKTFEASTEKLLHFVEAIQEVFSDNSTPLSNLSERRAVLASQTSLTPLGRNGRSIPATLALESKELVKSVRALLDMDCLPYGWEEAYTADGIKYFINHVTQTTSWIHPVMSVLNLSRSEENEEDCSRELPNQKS
UniProt Q6PL24: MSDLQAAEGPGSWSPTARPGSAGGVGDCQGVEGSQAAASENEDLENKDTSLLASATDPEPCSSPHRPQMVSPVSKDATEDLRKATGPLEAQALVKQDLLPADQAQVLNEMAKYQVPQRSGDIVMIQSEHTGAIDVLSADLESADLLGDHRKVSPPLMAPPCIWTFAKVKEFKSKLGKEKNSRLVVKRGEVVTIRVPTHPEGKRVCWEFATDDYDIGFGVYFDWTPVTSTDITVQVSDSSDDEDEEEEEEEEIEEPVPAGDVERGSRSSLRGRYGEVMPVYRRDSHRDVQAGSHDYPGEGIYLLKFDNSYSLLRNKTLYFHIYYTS

Compound: Nc1ncnc2c1ncn2[C@@H]1O[C@H](COP(=O)(O)OP(=O)(O)OP(=O)(O)O)[C@@H](O)[C@H]1O [adenosine triphosphate]
Experiment: NP40-soluble protein abundance relative to vehicle (solubility fold change) (ratio); higher = more soluble protein in presence of ATP
How it was run: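 Eight concentrations, 0.1 to 10 mM, were tested on Jurkat crude lysate for 10 min at room temperature and then 3 min at 37 °C, in three independent experiments. The lysate was solubilised with 0.8% NP40 and benzonase, ultracentrifuged, and the supernatant TMT-labelled for LC-MS/MS. Each value is the fold change against the detergent-processed vehicle in its own replicate, from vsn-normalised intensities.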

UniProt Q6ZT12 and related entries was tested, and the NP40-soluble protein abundance (concentration: 1mM) was 1.02 ± 0.011, the NP40-soluble protein abundance (concentration: 2mM) was 1.03 ± 0.071 and the NP40-soluble protein abundance (concentration: 4mM) was 1.02 ± 0.064. For the same target, the NP40-soluble protein abundance (concentration: 6mM) was 0.992 ± 0.041, the NP40-soluble protein abundance (concentration: 8mM) was 0.999 ± 0.057 and the NP40-soluble protein abundance (concentration: 10mM) was 0.96835 ± 0.0009.

UniProt Q86WQ0 and related entries gave an NP40-soluble protein abundance (concentration: 1mM) of 1.08 ± 0.046, an NP40-soluble protein abundance (concentration: 2mM) of 1.05 ± 0.082 and an NP40-soluble protein abundance (concentration: 4mM) of 1.04 ± 0.011. The NP40-soluble protein abundance (concentration: 6mM) was 1.06 ± 0.086, the NP40-soluble protein abundance (concentration: 8mM) was 1.04 ± 0.073 and the NP40-soluble protein abundance (concentration: 10mM) was 1.01 ± 0.056.

PACS1 (UniProt Q6VY07) showed an NP40-soluble protein abundance (concentration: 1mM) of 0.971 ± 0.032, an NP40-soluble protein abundance (concentration: 2mM) of 0.977 ± 0.037 and an NP40-soluble protein abundance (concentration: 4mM) of 0.982 ± 0.026. The NP40-soluble protein abundance (concentration: 6mM) was 0.94 ± 0.038, the NP40-soluble protein abundance (concentration: 8mM) was 0.939 ± 0.018 and the NP40-soluble protein abundance (concentration: 10mM) was 0.985 ± 0.039.

With EEPD1 (UniProt Q7L9B9) the NP40-soluble protein abundance (concentration: 1mM) was 1.03 ± 0.1, the NP40-soluble protein abundance (concentration: 2mM) was 1.07 ± 0.13 and the NP40-soluble protein abundance (concentration: 4mM) was 1.06 ± 0.064. The NP40-soluble protein abundance (concentration: 6mM) was 1.01 ± 0.087, the NP40-soluble protein abundance (concentration: 8mM) was 0.995 ± 0.083 and the NP40-soluble protein abundance (concentration: 10mM) was 1.06 ± 0.032.

UniProt Q7Z5L9 and related entries showed an NP40-soluble protein abundance (concentration: 1mM) of 0.949 ± 0.047, an NP40-soluble protein abundance (concentration: 2mM) of 0.9441 ± 0.005 and an NP40-soluble protein abundance (concentration: 4mM) of 0.9395 ± 0.008. The NP40-soluble protein abundance (concentration: 6mM) was 0.9354 ± 0.008, the NP40-soluble protein abundance (concentration: 8mM) was 0.918 ± 0.019 and the NP40-soluble protein abundance (concentration: 10mM) was 0.912 ± 0.028.

With PAXIP1 (UniProt Q6ZW49) the NP40-soluble protein abundance (concentration: 1mM) was 0.989 ± 0.04, the NP40-soluble protein abundance (concentration: 2mM) was 0.961 ± 0.051 and the NP40-soluble protein abundance (concentration: 4mM) was 0.995 ± 0.027. It also gave an NP40-soluble protein abundance (concentration: 6mM) of 0.915 ± 0.013, an NP40-soluble protein abundance (concentration: 8mM) of 0.969 ± 0.033 and an NP40-soluble protein abundance (concentration: 10mM) of 1.06 ± 0.089.

Work on CAND1 (UniProt Q86VP6) yielded an NP40-soluble protein abundance (concentration: 1mM) of 0.964 ± 0.019, an NP40-soluble protein abundance (concentration: 2mM) of 0.976 ± 0.043 and an NP40-soluble protein abundance (concentration: 4mM) of 0.933 ± 0.024. The NP40-soluble protein abundance (concentration: 6mM) was 0.942 ± 0.037, the NP40-soluble protein abundance (concentration: 8mM) was 0.929 ± 0.041 and the NP40-soluble protein abundance (concentration: 10mM) was 0.948 ± 0.039.

Target UniProt Q6UWE0 and related entries has an NP40-soluble protein abundance (concentration: 1mM) of 0.971 ± 0.036, an NP40-soluble protein abundance (concentration: 2mM) of 0.972 ± 0.062 and an NP40-soluble protein abundance (concentration: 4mM) of 0.958 ± 0.042. The NP40-soluble protein abundance (concentration: 6mM) was 0.93 ± 0.063, the NP40-soluble protein abundance (concentration: 8mM) was 0.958 ± 0.054 and the NP40-soluble protein abundance (concentration: 10mM) was 0.971 ± 0.043.

Work on UniProt Q7Z7C8 and related entries yielded an NP40-soluble protein abundance (concentration: 1mM) of 1.04 ± 0.077, an NP40-soluble protein abundance (concentration: 2mM) of 1.05 ± 0.048 and an NP40-soluble protein abundance (concentration: 4mM) of 1.08 ± 0.077. The NP40-soluble protein abundance (concentration: 6mM) was 1.13 ± 0.11, the NP40-soluble protein abundance (concentration: 8mM) was 1.06 ± 0.094 and the NP40-soluble protein abundance (concentration: 10mM) was 1.04 ± 0.043.

For LPCAT2 (UniProt Q7L5N7), the NP40-soluble protein abundance (concentration: 1mM) was 0.966 ± 0.037, the NP40-soluble protein abundance (concentration: 2mM) was 0.951 ± 0.073 and the NP40-soluble protein abundance (concentration: 4mM) was 1.06 ± 0.044. For the same target, the NP40-soluble protein abundance (concentration: 6mM) was 0.978 ± 0.017, the NP40-soluble protein abundance (concentration: 8mM) was 0.951 ± 0.075 and the NP40-soluble protein abundance (concentration: 10mM) was 0.923 ± 0.21.

RASAL3 (UniProt Q86YV0) showed an NP40-soluble protein abundance (concentration: 1mM) of 1.06 ± 0.011, an NP40-soluble protein abundance (concentration: 2mM) of 1.05 ± 0.036 and an NP40-soluble protein abundance (concentration: 4mM) of 1.05 ± 0.024. The NP40-soluble protein abundance (concentration: 6mM) was 1.07 ± 0.044, the NP40-soluble protein abundance (concentration: 8mM) was 1.07 ± 0.039 and the NP40-soluble protein abundance (concentration: 10mM) was 1.07 ± 0.04.

Target UniProt Q7L2H7 has an NP40-soluble protein abundance (concentration: 1mM) of 0.911 ± 0.034, an NP40-soluble protein abundance (concentration: 2mM) of 0.983 ± 0.06 and an NP40-soluble protein abundance (concentration: 4mM) of 1.02 ± 0.041. It also gave an NP40-soluble protein abundance (concentration: 6mM) of 0.937 ± 0.12, an NP40-soluble protein abundance (concentration: 8mM) of 1.09 ± 0.078 and an NP40-soluble protein abundance (concentration: 10mM) of 1.25 ± 0.039.

For ZDHHC13 (UniProt Q8IUH4), the NP40-soluble protein abundance (concentration: 1mM) was 0.971 ± 0.09, the NP40-soluble protein abundance (concentration: 2mM) was 0.965 ± 0.084 and the NP40-soluble protein abundance (concentration: 4mM) was 0.925 ± 0.075. It also gave an NP40-soluble protein abundance (concentration: 6mM) of 0.906 ± 0.062, an NP40-soluble protein abundance (concentration: 8mM) of 0.979 ± 0.11 and an NP40-soluble protein abundance (concentration: 10mM) of 0.937 ± 0.046.

With RAB43 (UniProt Q86YS6) the NP40-soluble protein abundance (concentration: 1mM) was 1 ± 0.11, the NP40-soluble protein abundance (concentration: 2mM) was 0.988 ± 0.12 and the NP40-soluble protein abundance (concentration: 4mM) was 1 ± 0.069. It also gave an NP40-soluble protein abundance (concentration: 6mM) of 0.958 ± 0.14, an NP40-soluble protein abundance (concentration: 8mM) of 0.996 ± 0.056 and an NP40-soluble protein abundance (concentration: 10mM) of 1 ± 0.048.

STXBP4 (UniProt Q6ZWJ1) showed an NP40-soluble protein abundance (concentration: 1mM) of 0.966 ± 0.08, an NP40-soluble protein abundance (concentration: 2mM) of 0.998 ± 0.048 and an NP40-soluble protein abundance (concentration: 4mM) of 0.977 ± 0.042. It also gave an NP40-soluble protein abundance (concentration: 6mM) of 1.01 ± 0.04, an NP40-soluble protein abundance (concentration: 8mM) of 0.966 ± 0.045 and an NP40-soluble protein abundance (concentration: 10mM) of 0.977 ± 0.043.

TMED8 (UniProt Q6PL24) was tested, and the NP40-soluble protein abundance (concentration: 1mM) was 0.951 ± 0.04, the NP40-soluble protein abundance (concentration: 2mM) was 0.969 ± 0.038 and the NP40-soluble protein abundance (concentration: 4mM) was 0.949 ± 0.021. It also gave an NP40-soluble protein abundance (concentration: 6mM) of 0.95 ± 0.045, an NP40-soluble protein abundance (concentration: 8mM) of 0.939 ± 0.026 and an NP40-soluble protein abundance (concentration: 10mM) of 0.951 ± 0.023.

In the case of UniProt Q8IUZ5 and related entries, the NP40-soluble protein abundance (concentration: 1mM) is reported as 1 ± 0.18, the NP40-soluble protein abundance (concentration: 2mM) is reported as 0.967 ± 0.088 and the NP40-soluble protein abundance (concentration: 4mM) is reported as 1.1 ± 0.086. For the same target, the NP40-soluble protein abundance (concentration: 6mM) was 1.04 ± 0.037, the NP40-soluble protein abundance (concentration: 8mM) was 1.02 ± 0.064 and the NP40-soluble protein abundance (concentration: 10mM) was 0.992 ± 0.031.
